Data as given in PubChem BioAssay AID686938 (Drosophila RNAi Screening Center, 2013)
The deposit covers about 23,000 reagents; this is an unselected part of those with a known target gene and a result. Of all reagents, 75 (0.33%) got an active call. 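Raw plate signals without normalisation; calls rest on plate z-scores that were not deposited; ratio present for only 364 wells.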 Entries without a mark were called inactive. Reagents against one gene are numbered here. Not stated in the record: the dose of the treatment.

Aim: 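Fly genes required for calcium entry once internal stores are emptied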 (primary screen)
Cells: Drosophila S2R+ cells
Reagent: long dsRNA against Drosophila genes, about 0.25 µg dsRNA per well, roughly 10,000 cells
Duration: 5 days of knock-down before the calcium assay
Treatment: thapsigargin (SERCA pump blocker) to empty calcium stores; entry signal taken 4 min after adding it
Measurement: 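Duplicate raw fluo-4 intensities per well from a plate reader, at rest and four minutes after thapsigargin emptied calcium stores; entry-to-rest ratio filled for only some wells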
Direction: calcium entry signal: higher = stronger calcium signal after store depletion; resting calcium signal: higher = higher resting calcium signal
Units: calcium entry signal in fluorescence units; resting calcium signal in fluorescence units
Active means: 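Hit if the duplicate-averaged plate z-score for entry over resting signal is under −3; wells with weak total dye signal (Fmax z < −2) or more than 5 off-targets removed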
Meaning of the calls: active = strongly reduced calcium entry; inactive = no strong reduction

CG34008 scored calcium entry signal, replicate 1 = 3.23e7; calcium entry signal, replicate 2 = 2.36e7; resting calcium signal, replicate 1 = 1.69e7; resting calcium signal, replicate 2 = 1.22e7.
Silencing of CG31546 came out at: calcium entry signal, replicate 1 = 3.40e7; calcium entry signal, replicate 2 = 3.69e7; resting calcium signal, replicate 1 = 1.48e7; resting calcium signal, replicate 2 = 1.63e7.
Silencing of drl gave: calcium entry signal, replicate 1 = 3.94e7; resting calcium signal, replicate 1 = 2.00e7.
VhaAC39-1 gave calcium entry signal, replicate 1 = 4.07e7; calcium entry signal, replicate 2 = 4.75e7; resting calcium signal, replicate 1 = 2.06e7; resting calcium signal, replicate 2 = 2.52e7.
sei scored calcium entry signal, replicate 1 = 4.30e7; resting calcium signal, replicate 1 = 2.15e7.
For Ugt303A1, the values are calcium entry signal, replicate 1 = 2.06e7; calcium entry signal, replicate 2 = 2.20e7; resting calcium signal, replicate 1 = 1.02e7; resting calcium signal, replicate 2 = 1.15e7.
For Hph #1 the deposit lists calcium entry signal, replicate 1 = 2.40e7; calcium entry signal, replicate 2 = 3.96e7; resting calcium signal, replicate 1 = 1.07e7; resting calcium signal, replicate 2 = 1.75e7.
Hph #2 scored calcium entry signal, replicate 1 = 3.57e7; calcium entry signal, replicate 2 = 1.96e7; resting calcium signal, replicate 1 = 1.68e7; resting calcium signal, replicate 2 = 9.68e6.
With knock-down of Hph #3, the record shows calcium entry signal, replicate 1 = 2.86e7; calcium entry signal, replicate 2 = 6.73e7; resting calcium signal, replicate 1 = 1.46e7; resting calcium signal, replicate 2 = 2.84e7.
Depletion of CG15701 came out at: calcium entry signal, replicate 1 = 3.74e7; calcium entry signal, replicate 2 = 3.57e7; resting calcium signal, replicate 1 = 1.66e7; resting calcium signal, replicate 2 = 1.72e7.
Against Pph13 #1, the entry reads calcium entry signal, replicate 1 = 4.21e7; resting calcium signal, replicate 1 = 2.32e7.
With knock-down of Pph13 #2, the record shows calcium entry signal, replicate 1 = 4.20e7; calcium entry signal, replicate 2 = 3.00e7; resting calcium signal, replicate 1 = 2.10e7; resting calcium signal, replicate 2 = 1.24e7.

Only “calcium entry signal, replicate 1” (2 entries from above):
Ugt303A1	2.06e7
Hph #1	2.40e7

Additional records follow:
After knock-down of ATPsynB, the record shows calcium entry signal, replicate 1 = 6.13e7; calcium entry signal, replicate 2 = 5.60e7; resting calcium signal, replicate 1 = 3.91e7; resting calcium signal, replicate 2 = 2.28e7.
Depletion of ND-ASHI resulted in: calcium entry signal, replicate 1 = 3.49e7; calcium entry signal, replicate 2 = 5.06e7; resting calcium signal, replicate 1 = 1.76e7; resting calcium signal, replicate 2 = 2.14e7.
With knock-down of CG7564, the screen gave calcium entry signal, replicate 1 = 3.51e7; calcium entry signal, replicate 2 = 4.58e7; resting calcium signal, replicate 1 = 1.68e7; resting calcium signal, replicate 2 = 1.72e7.
For CG11841, the entry reads calcium entry signal, replicate 1 = 2.87e7; calcium entry signal, replicate 2 = 2.15e7; resting calcium signal, replicate 1 = 1.31e7; resting calcium signal, replicate 2 = 1.14e7.
Against CG7208, the values are calcium entry signal, replicate 1 = 4.30e7; calcium entry signal, replicate 2 = 3.88e7; resting calcium signal, replicate 1 = 5.84e7; resting calcium signal, replicate 2 = 1.84e7.
For CG17712, the values are calcium entry signal, replicate 1 = 4.60e7; resting calcium signal, replicate 1 = 2.59e7.
For f #1, the entry reads calcium entry signal, replicate 1 = 2.26e7; calcium entry signal, replicate 2 = 2.04e7; resting calcium signal, replicate 1 = 1.19e7; resting calcium signal, replicate 2 = 1.22e7.
f #2 showed calcium entry signal, replicate 1 = 3.61e7; calcium entry signal, replicate 2 = 3.21e7; resting calcium signal, replicate 1 = 1.82e7; resting calcium signal, replicate 2 = 1.47e7.
After knock-down of f #3, the record shows calcium entry signal, replicate 1 = 3.15e7; calcium entry signal, replicate 2 = 2.85e7; resting calcium signal, replicate 1 = 1.71e7; resting calcium signal, replicate 2 = 1.50e7.
